From patent US8063225B2, “Tricyclic compound derivatives useful in the treatment of neoplastic diseases, inflammatory disorders and immunomodulatory disorders” (Chembridge Corporation, priority 2006, dated 2011) come the findings set out here.

Holding throughout (assay type): cell-based
One experiment concerns H929 (multiple myeloma). Kind of experiment: Cell proliferation inhibition, Cell Titer-Glo, H929. The following applies: Homo sapiens, NCI-H929; cell proliferation assay, H929 cells. The method, then:
(§1) IGF1R and other tyrosine kinase inhibitors can inhibit the proliferation of certain cancer cell lines indicating their possible therapeutic utility for treating the corresponding cancer types. Cancer cell lines of interest and control normal lines, including CHO, HEK293, BA/F3, MM1, H929, COLO205, PC3, DU145, MCF7, Panc1, ACHN, Hep G2, H460, K562, TT, U87-G, CAOV-3, SK-MEL5, Karpas 299, are plated in white, clear-bottomed 384-well cell culture plates at 2500-5000 cells per well and supplied with dilutions of tested compounds After a desired period of time (typically 3 days), the number of viable cells is quantitated by using Cell Titer-Glo Luminescent Cell Viability Assay (Promega), a cell proliferation assay system based on detection of total amount of ATP present as a measure of cell metabolic activity. The plated cells are mixed with the Cell Titer-Glo developing reagent and counted in a luminescence multiwell plate reader according to the standard manufacturer's protocol to generate IC50 curves for cell proliferation inhibition.
IGF1R and other tyrosine kinase inhibitors can inhibit the proliferation of certain cancer cell lines indicating their possible therapeutic utility for treating the corresponding cancer types. […] Alternatively, viable cells are quantitated by using the conventional colorimetric MTT assay. […]
A general note: ATP-based viability assays read luminescence as a measure of living cells.

The subject of a further experiment is Ba/F3. As to the kind of experiment: Cell proliferation inhibition, Cell Titer-Glo, Ba/F3. As to conditions: Mus musculus, BaF3; cell proliferation assay, Ba/F3 cells.
From the text: as §1, with “BA/F3,” for “BA/F3, MM1, H929,”, “U87-MG,” for “U87-G,”, “299 and human multiple myeloma cell lines H929, MM1s, MM1r, UTMC2, CPM2, KMS11, My5, KMS12PE, My7, JJN3, KMS18, U266, SKMM2, RPMI-8226” for “299,”, “inhibition. […] Alternatively, viable cells are quantitated by using the conventional colorimetric MTT assay. […] The formazan is then solubilized, and the concentration determined by optical density at 570 nm. […]” for “inhibition.”

The next experiment concerns Karpas-299. Kind of experiment: Cell proliferation inhibition, Cell Titer-Glo, Karpas-299. The following applies: Homo sapiens; cell proliferation assay, Karpas-299 cells.
From the text: as §1, with “BA/F3,” for “BA/F3, MM1, H929,”, “U87-MG,” for “U87-G,”, “299 and human multiple myeloma cell lines H929, MM1s, MM1r, UTMC2, CPM2, KMS11, My5, KMS12PE, My7, JJN3, KMS18, U266, SKMM2, RPMI-8226” for “299,”, “inhibition. […] Alternatively, viable cells are quantitated by using the conventional colorimetric MTT assay. […] The formazan is then solubilized, and the concentration determined by optical density at 570 nm. […]” for “inhibition.”

As for `Cc1ccc(OC[C@H](O)CNc2cc[nH]c(=O)c2-c2nc3cc4c(cc3[nH]2)C(=O)N(N2CCN(CCO)CC2)C4=O)c(C)c1` [compound 145], the IC50 in the experiment on H929 (multiple myeloma) was 0.5 to 5 µM; in the experiment with Ba/F3 it was above 15 µM; with Karpas-299, above 15 µM.

The IC50 is the concentration that inhibits the measured activity by half. High values mean weaker potency in that assay, low ones greater potency in that assay.
